Reference: PubChem BioAssay AID504786 (Drosophila RNAi Screening Center, 2011)
Assay: 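Fly genes required for HIF-dependent transcription when hypoxia is mimicked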 (primary screen). Cell system: Drosophila S2 cells with a stable HIF luciferase reporter. Reagents: long dsRNA against Drosophila genes, about 0.2 µg dsRNA per well of a 384-well plate. Duration: three days of knock-down, then 20 h of DFO before reading. Treatment: desferrioxamine (DFO) at 100 µM, an iron chelator that mimics hypoxia, for 20 h. Measurement: 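HIF reporter luminescence in cells given 100 µM DFO for 20 h, using the mouse ldh-a hypoxia-response element, scored as per-plate z-scores; higher means greater loss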. Reading the numbers: z-score: higher = stronger loss of HIF reporter signal.
In all, the deposit lists about 21,000 reagents; below is an unselected part of those with a known target gene and a result. 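Primary screen; positive scores mean lost reporter signal, so the sign may be inverted from the usual convention.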 The numbers tell different reagents against one gene apart. Names joined by + are all predicted targets of the reagent.

| Gene | reagent | z-score, replicate 1 | z-score, replicate 2 | z-score, replicate 3 | z-score, replicate 4 |
| --- | --- | --- | --- | --- | --- |
| Frq2 (Frequenin 2) | 1 | -0.3 | 0.1 | – | – |
| I-3 (Inhibitor-3) | 1 | 0 | -0.5 | – | – |
| CG32100 | 1 | -0.1 | 0.1 | – | – |
| CG32100 | 2 | -0.3 | -0.4 | – | – |
| Qsox3 (Quiescin sulfhydryl oxidase 3) | 1 | 0.4 | -0.2 | – | – |
| CG8569 | 1 | -0.1 | -0.6 | – | – |
| Gp210 (Glycoprotein 210 kDa) | 1 | -0.3 | -0.3 | – | – |
| Gp210 (Glycoprotein 210 kDa) | 2 | -0.3 | -0.4 | – | – |
| fs(1)h (female sterile (1) homeotic) | 1 | -0.4 | -0.1 | 1.1 | -0.1 |
| CG7966 | 1 | -0.3 | -0.4 | – | – |
| CG32026 | 1 | 0 | 0.1 | – | – |
| CG10384 | 1 | -0.3 | -0.2 | – | – |
| CG10384 | 2 | 0.7 | 0.7 | – | – |
| CG13385 | 1 | -0.4 | -0.4 | – | – |
| Abi (Abelson interacting protein) | 1 | 0.1 | 0.6 | – | – |
| nrv2 (nervana 2) | 1 | -0.5 | -0.3 | – | – |
| nrv2 (nervana 2) | 2 | -0.2 | 0 | – | – |
| CG5758 | 1 | -0.3 | 2.2 | 0.4 | 2.5 |
| CG5758 | 2 | -0.3 | 0.2 | – | – |
| CG12637 | 1 | -0.1 | -0.3 | – | – |
| CG7639 | 1 | -0.3 | -0.5 | – | – |
| COX6AL2 + Ir75d | 1 | -0.1 | 0.1 | – | – |
| CG30349 | 1 | 0.1 | 3.5 | – | – |
| CG30349 | 2 | 0.2 | 2.9 | – | – |
| Cyp28d2 (Cytochrome P450 28d2) | 1 | -0.3 | -0.5 | – | – |
| Tim17b1 | 1 | -0.3 | -0.5 | – | – |
| Gbeta76C (G protein beta subunit 76C) | 1 | -0.2 | 0.3 | – | – |
| Icmt (Isoprenylcysteine carboxyl methyltransferase) | 1 | -0.2 | 1.2 | – | – |
| CG4306 | 1 | -0.2 | 0.7 | – | – |
| CG6015 | 1 | 1.7 | 2.7 | – | – |
| CG34281 | 1 | -0.3 | 0.2 | – | – |
| isoQC (iso Glutaminyl cyclase) | 1 | -0.2 | -0.4 | – | – |
| HPS1 (Hermansky-Pudlak Syndrome 1) | 1 | -0.2 | -0.3 | – | – |
| CG14691 | 1 | -0.3 | -0.7 | – | – |
| Dfd (Deformed) | 1 | -0.2 | -0.3 | – | – |
| Cyt-c1 (Cytochrome c1) | 1 | 0.5 | 1.6 | – | – |
| CG42402 | 1 | 0 | 0 | – | – |
| CG33635 | 1 | 1.4 | 0.3 | – | – |
| CG1494 | 1 | 0.1 | -0.1 | – | – |
| THADA | 1 | -0.4 | -0.5 | – | – |
| CG13247 | 1 | -0.2 | -0.7 | – | – |
| Pkn (Protein kinase N) | 1 | -0.1 | -0.3 | – | – |
| Pkn (Protein kinase N) | 2 | -0.3 | -0.5 | – | – |
| CG9121 | 1 | -0.1 | -0.2 | – | – |
| Nlg3 (Neuroligin 3) | 1 | -0.3 | -0.2 | – | – |
| Nlg3 (Neuroligin 3) | 2 | 0.3 | -0.8 | – | – |
| Nlg3 (Neuroligin 3) | 3 | 0 | 0.2 | – | – |
| Nlg3 (Neuroligin 3) | 4 | -0.2 | -0.3 | – | – |
| RhoGAPp190 (Rho GTPase activating protein p190) | 1 | -0.4 | 0.1 | – | – |
| RhoGAPp190 (Rho GTPase activating protein p190) | 2 | -0.3 | -0.2 | – | – |
| CG15877 | 1 | -0.1 | -0.4 | – | – |
| CG3257 | 1 | -0.1 | -0.9 | – | – |
| BicC (Bicaudal C) | 1 | -0.2 | -0.7 | – | – |
| Tom40 (Translocase of outer membrane 40) | 1 | 0.9 | 0.5 | – | – |
| CG14187 | 1 | -0.4 | -0.4 | – | – |
| eIF1 (eukaryotic translation initiation factor 1) | 1 | -0.2 | -0.7 | – | – |
